From paper PMC8516343
No constants are given. Whether binding was seen depends on the method and setting. In cells and extracts the contact can be indirect.

Amino acid sequences for entries named in this document (tags omitted).
UniProt P18848: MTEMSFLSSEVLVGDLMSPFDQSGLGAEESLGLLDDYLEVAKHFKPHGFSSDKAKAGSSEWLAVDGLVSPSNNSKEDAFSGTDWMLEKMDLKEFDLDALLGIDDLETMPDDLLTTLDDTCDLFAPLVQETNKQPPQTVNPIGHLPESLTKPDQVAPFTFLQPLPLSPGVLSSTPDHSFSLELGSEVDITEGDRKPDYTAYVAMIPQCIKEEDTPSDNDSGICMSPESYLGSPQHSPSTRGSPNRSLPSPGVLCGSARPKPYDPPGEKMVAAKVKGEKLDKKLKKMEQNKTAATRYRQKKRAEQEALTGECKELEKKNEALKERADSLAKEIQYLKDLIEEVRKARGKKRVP
UniProt P49674: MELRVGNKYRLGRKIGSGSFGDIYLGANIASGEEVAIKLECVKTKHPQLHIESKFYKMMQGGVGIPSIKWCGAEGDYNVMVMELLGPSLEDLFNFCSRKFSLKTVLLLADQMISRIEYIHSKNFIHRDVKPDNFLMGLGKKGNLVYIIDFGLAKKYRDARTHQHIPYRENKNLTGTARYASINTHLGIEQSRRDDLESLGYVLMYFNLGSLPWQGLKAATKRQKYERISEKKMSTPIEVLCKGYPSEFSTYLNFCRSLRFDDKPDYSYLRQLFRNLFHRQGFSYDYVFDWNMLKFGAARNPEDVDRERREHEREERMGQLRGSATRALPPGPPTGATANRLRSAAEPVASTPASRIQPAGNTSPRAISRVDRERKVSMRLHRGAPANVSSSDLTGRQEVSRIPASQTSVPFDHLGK

Molecular target: HA-ATF4 (full-length wild-type) (human) (UniProt P18848)
Assay: co-IP; anti-HA co-IP from HEK293T cells co-transfected with HA-ATF4 and Flag-CK1α/δ/ε, western blot with anti-Flag and anti-ATF4

**Q.** Which binding does the source give for “Flag-CK1ε (from UniProt P49674 1-416) (enzyme)” here?
**A.** Its binding is “no binding”.
